Our source for the binding values is paper PMC13254535, “The RecBCD complex interacts directly with the DNA sliding clamp in Escherichia coli” (Nucleic Acids Research, 2026).

Amino acid sequences for entries named in this document (tags omitted).
UniProt P0A988: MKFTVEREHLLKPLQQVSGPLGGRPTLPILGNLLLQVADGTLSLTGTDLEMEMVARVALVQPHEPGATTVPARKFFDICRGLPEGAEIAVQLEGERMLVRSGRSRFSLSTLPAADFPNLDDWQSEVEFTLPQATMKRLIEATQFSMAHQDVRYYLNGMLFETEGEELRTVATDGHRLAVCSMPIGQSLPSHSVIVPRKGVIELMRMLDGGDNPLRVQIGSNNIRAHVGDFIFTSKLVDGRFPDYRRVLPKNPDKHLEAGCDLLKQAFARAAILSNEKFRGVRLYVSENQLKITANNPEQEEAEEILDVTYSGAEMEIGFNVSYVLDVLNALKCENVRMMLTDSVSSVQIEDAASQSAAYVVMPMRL
UniProt P0A7G6: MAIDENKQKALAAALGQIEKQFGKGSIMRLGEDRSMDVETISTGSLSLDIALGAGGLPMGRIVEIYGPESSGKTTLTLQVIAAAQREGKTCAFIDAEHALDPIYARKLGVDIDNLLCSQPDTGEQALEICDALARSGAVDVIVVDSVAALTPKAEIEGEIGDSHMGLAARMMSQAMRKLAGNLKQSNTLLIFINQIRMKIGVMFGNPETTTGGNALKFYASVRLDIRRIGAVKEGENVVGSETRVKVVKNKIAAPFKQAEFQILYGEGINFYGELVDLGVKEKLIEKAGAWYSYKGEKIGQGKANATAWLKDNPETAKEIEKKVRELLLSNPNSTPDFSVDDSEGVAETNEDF

Assay [1] addresses Escherichia coli β-clamp (DnaN), recombinantly expressed and purified (Escherichia coli) (UniProt P0A988). As to the kind of experiment: STD-NMR; 150 µM peptide with 1.5 µM unlabeled β-clamp, 20 mM sodium phosphate, 100 mM NaCl, 5 mM DTT, 0.3% DMSO, pH 7.4, 25°C; both purified.
Assay [2] has as its target β-clamp (DnaN)-T25 fusion from pKT25-dnaN (Escherichia coli) (UniProt P0A988). As to the kind of experiment: two-hybrid; BACTH, quantitative β-galactosidase (Miller) assay, BTH101 wild type and ΔrecB backgrounds, 30°C, 0.5 mM IPTG.
The target is the same in assay [3]. As to the kind of experiment: two-hybrid; BACTH, qualitative X-gal spot (blue/white) assay on LB agar with IPTG and X-gal, 30°C, 2-3 days; an identical plate exposed to UV 15 J/m^2.
Assay [4] addresses RecA–T25 fusion from pKT25-recAWT (Escherichia coli) (UniProt P0A7G6). As to the kind of experiment: two-hybrid; BACTH of RecB with RecA; read-out not told in the text (Supplementary Fig. S8).
Assay [5] concerns the target β-clamp (DnaN)-T25 fusion from pKT25-dnaN (Escherichia coli) (UniProt P0A988). As to the kind of experiment: two-hybrid; BACTH, quantitative β-galactosidase assay in BTH101 recD::minitet (ΔrecD).
The target is the same in assay [6]. As to the kind of experiment: two-hybrid; BACTH, quantitative β-galactosidase assay in BTH101 ΔrecC.
The target is the same in assay [7]. As to the kind of experiment: two-hybrid; BACTH, selective growth in M63 minimal medium with maltose, 30°C, OD600 at 24, 48, 72 h; BTH101 ΔrecA.

Positions count from the first letter of the chain named. Names may count otherwise. Results are given in words; binding and its absence hold for the method and conditions named. Some results given as binding are weak or reduced against the parent protein; the word gives no strength. For some assays here: Tags and fused reporters may be left off the sequences shown.

B1: RecB helicase motif peptide (…) (peptide)
peptide: GKNQALRFV
modifications: N-terminally acetylated; C-terminally amidated
As to B1, the binding result in assay [1] was “no binding (tested: 150 µM peptide with 1.5 µM β-clamp)”.

B2: RecB_(Δnuc)–T18 fusion (RecB helicase domain, residues 1–927) (domain or fragment, UniProt P08394 1-927)
chain: MSDVAETLDPLRLPLQGERLIEASAGTGKTFTIAALYLRLLLGLGGSAAFPRPLTVEELLVVTFTEAATAELRGRIRSNIHELRIACLRETTDNPLYERLLEEIDDKAQAAQWLLLAERQMDEAAVFTIHGFCQRMLNLNAFESGMLFEQQLIEDESLLRYQACADFWRRHCYPLPREIAQVVFETWKGPQALLRDINRYLQGEAPVIKAPPPDDETLASRHAQIVARIDTVKQQWRDAVGELDALIESSGIDRRKFNRSNQAKWIDKISAWAEEETNSYQLPESLEKFSQRFLEDRTKAGGETPRHPLFEAIDQLLAEPLSIRDLVITRALAEIRETVAREKRRRGELGFDDMLSRLDSALRSESGEVLAAAIRTRFPVAMIDEFQDTDPQQYRIFRRIWHHQPETALLLIGDPKQAIYAFRGADIFTYMKARSEVHAHYTLDTNWRSAPGMVNSVNKLFSQTDDAFMFREIPFIPVKSAGKNQALRFVFKGETQPAMKMWLMEGESCGVGDYQSTMAQVCAAQIRDWLQAGQRGEALLMNGDDARPVRASDISVLVRSRQEAAQVRDALTLLEIPSVYLSNRDSVFETLEAQEMLWLLQAVMTPERENTLRSALATSMMGLNALDIETLNNDEHAWDVVVEEFDGYRQIWRKRGVMPMLRALMSARNIAENLLATAGGERRLTDILHISELLQEAGTQLESEHALVRWLSQHILEPDSNASSQQMRLESDKHLVQIVTIHKSKGLEYPLVWLPFITNFRVQEQAFYHDRHSFEAVLDLNAAPESVDLAEAERLAEDLRLLYVALTRSVWHCSLGVAPLVRRRGDKKGDTDVHQSALGRLLQKGEPQDAAGLRTCIEALCDDDIAWQTAQTGDNQPWQVNDVSTAELNAKTLQRLPGDNWRVTSYSGLQQRGHGIAQDLMPRLDVD
As to B2, the binding result in assay [2] is listed as “binds”.

B3: RecB_(Δnuc mutQALRF)–T18 fusion (domain or fragment, UniProt P08394 1-927)
chain: B2 chain with Q485A, L487A, R488A, F489A
As to B3, the binding entry in assay [2] was “no binding”.

B4: RecB–T18 fusion, wild type, from pUT18C-recBWT (protein, UniProt P08394 1-1180)
chain: MSDVAETLDPLRLPLQGERLIEASAGTGKTFTIAALYLRLLLGLGGSAAFPRPLTVEELLVVTFTEAATAELRGRIRSNIHELRIACLRETTDNPLYERLLEEIDDKAQAAQWLLLAERQMDEAAVFTIHGFCQRMLNLNAFESGMLFEQQLIEDESLLRYQACADFWRRHCYPLPREIAQVVFETWKGPQALLRDINRYLQGEAPVIKAPPPDDETLASRHAQIVARIDTVKQQWRDAVGELDALIESSGIDRRKFNRSNQAKWIDKISAWAEEETNSYQLPESLEKFSQRFLEDRTKAGGETPRHPLFEAIDQLLAEPLSIRDLVITRALAEIRETVAREKRRRGELGFDDMLSRLDSALRSESGEVLAAAIRTRFPVAMIDEFQDTDPQQYRIFRRIWHHQPETALLLIGDPKQAIYAFRGADIFTYMKARSEVHAHYTLDTNWRSAPGMVNSVNKLFSQTDDAFMFREIPFIPVKSAGKNQALRFVFKGETQPAMKMWLMEGESCGVGDYQSTMAQVCAAQIRDWLQAGQRGEALLMNGDDARPVRASDISVLVRSRQEAAQVRDALTLLEIPSVYLSNRDSVFETLEAQEMLWLLQAVMTPERENTLRSALATSMMGLNALDIETLNNDEHAWDVVVEEFDGYRQIWRKRGVMPMLRALMSARNIAENLLATAGGERRLTDILHISELLQEAGTQLESEHALVRWLSQHILEPDSNASSQQMRLESDKHLVQIVTIHKSKGLEYPLVWLPFITNFRVQEQAFYHDRHSFEAVLDLNAAPESVDLAEAERLAEDLRLLYVALTRSVWHCSLGVAPLVRRRGDKKGDTDVHQSALGRLLQKGEPQDAAGLRTCIEALCDDDIAWQTAQTGDNQPWQVNDVSTAELNAKTLQRLPGDNWRVTSYSGLQQRGHGIAQDLMPRLDVDAAGVASVVEEPTLTPHQFPRGASPGTFLHSLFEDLDFTQPVDPNWVREKLELGGFESQWEPVLTEWITAVLQAPLNETGVSLSQLSARNKQVEMEFYLPISEPLIASQLDTLIRQFDPLSAGCPPLEFMQVRGMLKGFIDLVFRHEGRYYLLDYKSNWLGEDSSAYTQQAMAAAMQAHRYDLQYQLYTLALHRYLRHRIADYDYEHHFGGVIYLFLRGVDKEHPQQGIYTTRPNAGLIALMDEMFAGMTLEEA
B4: the binding entry in assay [3] is recorded as “binds”; in assay [4], “binds”; in assay [5], “no binding (condition: in BTH101 ΔrecD (no RecD))”; in assay [6], “no binding (condition: in BTH101 ΔrecC (no RecC))”; in assay [7] it was “binds”; in assay [2] it was “binds”.

B5: RecB_(F1023A)–T18 fusion from pUT18C-recB_(F1023A) (protein, UniProt P08394 1-1180)
chain: B4 chain with F1023A
For B5, the binding entry in assay [4] was “binds”.

B6: RecB helicase motif F-A peptide (…) (peptide)
peptide: GKNQALRAV
modifications: N-terminally acetylated; C-terminally amidated
Take B6: in assay [1], the binding result is recorded as “no binding (tested: 150 µM peptide with 1.5 µM β-clamp)”.

B7: RecB nuclease motif F-A peptide (KQVEMEAY) (peptide)
peptide: KQVEMEAY
modifications: N-terminally acetylated; C-terminally amidated
For B7, the binding entry in assay [1] is reported as “no binding (tested: 150 µM peptide with 1.5 µM β-clamp)”.

B8: RecB_(Δheli)–T18 fusion (RecB nuclease domain, residues 928–1180) (domain or fragment, UniProt P08394 928-1180)
chain: AAGVASVVEEPTLTPHQFPRGASPGTFLHSLFEDLDFTQPVDPNWVREKLELGGFESQWEPVLTEWITAVLQAPLNETGVSLSQLSARNKQVEMEFYLPISEPLIASQLDTLIRQFDPLSAGCPPLEFMQVRGMLKGFIDLVFRHEGRYYLLDYKSNWLGEDSSAYTQQAMAAAMQAHRYDLQYQLYTLALHRYLRHRIADYDYEHHFGGVIYLFLRGVDKEHPQQGIYTTRPNAGLIALMDEMFAGMTLEEA
For B8, the binding result in assay [2] is recorded as “binds”.

B9: RecB_(Δheli mutQVEMEF)–T18 fusion (domain or fragment, UniProt P08394 928-1180)
chain: B8 chain with Q91A, V92A, E93A, M94A, E95A, F96A
As to B9, the binding result in assay [2] is given as “no binding”.
